PubChem BioAssay AID1224826 | NIAID – 2016
This is one part, drawn at random, of about 17,000 reagents. Of all reagents, about 1,110 (6.6%) got an active call. 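Active means lowered or raised reporter signal; replicate intensities are raw and not normalised per plate.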 Unmarked entries are inactive. Further read-outs or replicates are left out here.

Test: 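Genes that change LPS-induced Tnf promoter activity in mouse macrophages when knocked down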 (primary screen)
Cell system: RAW264.7 G9 macrophages from mouse bearing reporters for p65 (GFP) and the Tnf promoter (mCherry)
Reagents: siRNA pool against mouse genes, 100 nM
Duration: 16 h of LPS stimulation, after 2 days of siRNA transfection
Treatment: bacterial lipopolysaccharide (Salmonella minnesota R595), 10 ng/ml
Measured: 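Nuclear mCherry signal of the Tnf promoter reporter measured by imaging after background removal, scaled to each plate median and turned into robust z-scores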
Reading the numbers: Tnf reporter robust z-score: higher = stronger Tnf promoter reporter signal after LPS
Active means: 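Called active when robust z-score is at most -1.3, matching the median of the Tlr4 knock-down control, or over 3; control wells and wells with under 50 cells never active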
Meaning of the calls: active = Tnf reporter clearly lowered or raised; inactive = no clear change in Tnf reporter

Raet1d (retinoic acid early transcript delta): Tnf reporter robust z-score = 2.51; fewer than 50 cells in well = enough cells in well
Zyx (zyxin): Tnf reporter robust z-score = 0.75; fewer than 50 cells in well = enough cells in well
Vmn1r-ps8 (vomeronasal 1 receptor, pseudogene 8): Tnf reporter robust z-score = -0.64; fewer than 50 cells in well = enough cells in well
Gm14461 (predicted gene 14461): Tnf reporter robust z-score = 0.01; fewer than 50 cells in well = enough cells in well
Rdx (radixin): Tnf reporter robust z-score = -0.19; fewer than 50 cells in well = enough cells in well
Or11h4 (olfactory receptor family 11 subfamily H member 4): fewer than 50 cells in well = fewer than 50 cells per well; well left out of calls
Ubox5 (U box domain containing 5): Tnf reporter robust z-score = -0.62; fewer than 50 cells in well = enough cells in well
Hgs (HGF-regulated tyrosine kinase substrate): Tnf reporter robust z-score = -0.92; fewer than 50 cells in well = enough cells in well
Onecut2 (one cut domain, family member 2): Tnf reporter robust z-score = -1.28; fewer than 50 cells in well = enough cells in well
Ccdc92 (coiled-coil domain containing 92): Tnf reporter robust z-score = 0.17; fewer than 50 cells in well = enough cells in well
Or2j3 (olfactory receptor family 2 subfamily J member 3): Tnf reporter robust z-score = -0.2; fewer than 50 cells in well = enough cells in well
Slx4 (SLX4 structure-specific endonuclease subunit): fewer than 50 cells in well = fewer than 50 cells per well; well left out of calls

Looked up above.
For “Tnf reporter robust z-score”, Zyx (zyxin) shows 0.75
Entry for Hgs (HGF-regulated tyrosine kinase substrate) in “Tnf reporter robust z-score”: -0.92

More results follow.
Eya2 (EYA transcriptional coactivator and phosphatase 2): Tnf reporter robust z-score = 0.49; fewer than 50 cells in well = enough cells in well
Nr1d2 (nuclear receptor subfamily 1, group D, member 2): Tnf reporter robust z-score = -0.82; fewer than 50 cells in well = enough cells in well
Them6 (thioesterase superfamily member 6): fewer than 50 cells in well = fewer than 50 cells per well; well left out of calls
Mill1 (MHC I like leukocyte 1): Tnf reporter robust z-score = 0.5; fewer than 50 cells in well = enough cells in well
Adsl (adenylosuccinate lyase): Tnf reporter robust z-score = 3.83 (active); fewer than 50 cells in well = enough cells in well
Afmid (arylformamidase): Tnf reporter robust z-score = -0.62; fewer than 50 cells in well = enough cells in well
Pygm (muscle glycogen phosphorylase): Tnf reporter robust z-score = -0.64; fewer than 50 cells in well = enough cells in well
Plscr2 (phospholipid scramblase 2): Tnf reporter robust z-score = -0.37; fewer than 50 cells in well = enough cells in well
Gnai3 (G protein subunit alpha i3): Tnf reporter robust z-score = -0.22; fewer than 50 cells in well = enough cells in well
